According to the supplement of paper PMC12067093, “Discovery and optimisation of a covalent ligand for TRIM25 and its application to targeted protein ubiquitination” (Chemical Science, 2025):
This is one part of the list.

Amino acid sequences for entries named in this document (tags omitted). A change or cut given only in a name is not applied to a line headed by its entry.
UniProt P27695, whole entry, looked up: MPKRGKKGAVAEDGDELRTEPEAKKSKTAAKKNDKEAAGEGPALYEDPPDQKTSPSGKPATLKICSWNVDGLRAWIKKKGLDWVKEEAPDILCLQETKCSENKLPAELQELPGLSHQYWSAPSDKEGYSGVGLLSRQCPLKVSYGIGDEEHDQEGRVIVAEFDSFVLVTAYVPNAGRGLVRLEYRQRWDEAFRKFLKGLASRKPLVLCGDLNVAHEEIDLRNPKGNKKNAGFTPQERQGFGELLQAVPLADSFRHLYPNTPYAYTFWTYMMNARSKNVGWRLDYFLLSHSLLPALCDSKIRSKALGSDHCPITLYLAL
UniProt Q9P2R3: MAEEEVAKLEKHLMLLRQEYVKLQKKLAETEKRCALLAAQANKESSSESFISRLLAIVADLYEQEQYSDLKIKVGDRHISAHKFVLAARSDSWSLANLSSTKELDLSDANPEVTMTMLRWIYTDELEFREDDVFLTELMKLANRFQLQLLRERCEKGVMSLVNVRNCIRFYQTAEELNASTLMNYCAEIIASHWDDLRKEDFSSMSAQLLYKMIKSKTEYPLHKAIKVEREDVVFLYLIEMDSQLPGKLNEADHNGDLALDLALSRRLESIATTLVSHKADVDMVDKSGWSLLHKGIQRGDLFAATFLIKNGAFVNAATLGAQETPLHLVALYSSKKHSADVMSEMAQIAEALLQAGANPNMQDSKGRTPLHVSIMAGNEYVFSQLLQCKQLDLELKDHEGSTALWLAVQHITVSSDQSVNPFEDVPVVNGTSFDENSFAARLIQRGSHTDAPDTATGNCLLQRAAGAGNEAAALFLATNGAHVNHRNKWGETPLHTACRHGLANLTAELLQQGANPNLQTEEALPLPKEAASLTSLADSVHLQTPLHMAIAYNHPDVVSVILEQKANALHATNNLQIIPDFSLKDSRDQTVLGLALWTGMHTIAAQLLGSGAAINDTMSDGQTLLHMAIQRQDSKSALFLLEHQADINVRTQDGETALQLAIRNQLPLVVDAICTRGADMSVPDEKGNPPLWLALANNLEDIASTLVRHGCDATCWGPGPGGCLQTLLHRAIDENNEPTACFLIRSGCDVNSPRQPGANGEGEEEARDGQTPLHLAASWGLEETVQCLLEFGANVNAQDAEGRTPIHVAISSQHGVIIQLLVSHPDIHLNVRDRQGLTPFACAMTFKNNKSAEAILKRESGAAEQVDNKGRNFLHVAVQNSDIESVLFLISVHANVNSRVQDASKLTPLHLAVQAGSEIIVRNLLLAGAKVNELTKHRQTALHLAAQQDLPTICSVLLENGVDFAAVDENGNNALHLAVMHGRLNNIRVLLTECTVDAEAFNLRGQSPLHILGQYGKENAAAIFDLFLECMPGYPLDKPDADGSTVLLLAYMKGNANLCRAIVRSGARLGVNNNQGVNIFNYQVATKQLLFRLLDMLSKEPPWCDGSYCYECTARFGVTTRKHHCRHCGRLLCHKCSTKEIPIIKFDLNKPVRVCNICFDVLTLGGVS
UniProt O95782: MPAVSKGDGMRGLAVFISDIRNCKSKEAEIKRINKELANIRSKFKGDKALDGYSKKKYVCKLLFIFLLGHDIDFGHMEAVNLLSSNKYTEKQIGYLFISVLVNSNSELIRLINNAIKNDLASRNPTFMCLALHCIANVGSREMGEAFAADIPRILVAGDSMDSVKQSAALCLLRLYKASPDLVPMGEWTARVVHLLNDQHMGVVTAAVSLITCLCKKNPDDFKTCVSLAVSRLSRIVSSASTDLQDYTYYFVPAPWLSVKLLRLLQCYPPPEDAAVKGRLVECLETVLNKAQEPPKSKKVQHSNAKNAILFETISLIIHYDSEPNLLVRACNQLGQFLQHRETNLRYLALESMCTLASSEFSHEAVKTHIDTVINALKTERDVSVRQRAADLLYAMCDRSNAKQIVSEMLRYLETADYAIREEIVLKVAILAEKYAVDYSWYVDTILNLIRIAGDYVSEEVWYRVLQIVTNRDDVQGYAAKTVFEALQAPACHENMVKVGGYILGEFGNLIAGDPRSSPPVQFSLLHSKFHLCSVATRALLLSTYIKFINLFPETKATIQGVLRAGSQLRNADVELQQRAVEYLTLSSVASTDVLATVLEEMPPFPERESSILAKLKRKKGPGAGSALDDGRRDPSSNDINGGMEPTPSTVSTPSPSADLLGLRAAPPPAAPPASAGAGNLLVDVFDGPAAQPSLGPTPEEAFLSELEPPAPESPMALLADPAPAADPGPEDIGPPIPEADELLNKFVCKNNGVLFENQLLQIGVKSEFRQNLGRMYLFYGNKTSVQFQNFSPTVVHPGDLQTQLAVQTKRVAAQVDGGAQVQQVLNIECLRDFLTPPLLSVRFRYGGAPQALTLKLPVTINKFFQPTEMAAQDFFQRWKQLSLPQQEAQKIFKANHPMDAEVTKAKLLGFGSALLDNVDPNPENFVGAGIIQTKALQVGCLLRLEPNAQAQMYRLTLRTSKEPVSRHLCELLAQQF
UniProt Q7Z5R6: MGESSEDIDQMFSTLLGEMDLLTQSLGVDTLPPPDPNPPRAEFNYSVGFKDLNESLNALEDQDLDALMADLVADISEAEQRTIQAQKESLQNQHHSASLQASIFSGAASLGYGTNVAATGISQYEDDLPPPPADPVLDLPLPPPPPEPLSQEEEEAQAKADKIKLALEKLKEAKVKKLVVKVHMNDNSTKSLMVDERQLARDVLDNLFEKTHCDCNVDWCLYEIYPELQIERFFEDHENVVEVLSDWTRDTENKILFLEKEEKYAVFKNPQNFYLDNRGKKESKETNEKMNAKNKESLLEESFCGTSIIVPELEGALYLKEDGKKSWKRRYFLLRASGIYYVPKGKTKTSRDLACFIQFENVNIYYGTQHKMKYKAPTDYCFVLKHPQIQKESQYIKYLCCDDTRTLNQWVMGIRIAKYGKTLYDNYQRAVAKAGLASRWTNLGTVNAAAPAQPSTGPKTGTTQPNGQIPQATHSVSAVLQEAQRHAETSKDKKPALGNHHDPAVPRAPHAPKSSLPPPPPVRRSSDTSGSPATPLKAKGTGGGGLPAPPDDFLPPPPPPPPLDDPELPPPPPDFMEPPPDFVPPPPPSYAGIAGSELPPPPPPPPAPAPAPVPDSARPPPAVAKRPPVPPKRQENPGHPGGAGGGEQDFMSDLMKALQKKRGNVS
UniProt Q8NB46: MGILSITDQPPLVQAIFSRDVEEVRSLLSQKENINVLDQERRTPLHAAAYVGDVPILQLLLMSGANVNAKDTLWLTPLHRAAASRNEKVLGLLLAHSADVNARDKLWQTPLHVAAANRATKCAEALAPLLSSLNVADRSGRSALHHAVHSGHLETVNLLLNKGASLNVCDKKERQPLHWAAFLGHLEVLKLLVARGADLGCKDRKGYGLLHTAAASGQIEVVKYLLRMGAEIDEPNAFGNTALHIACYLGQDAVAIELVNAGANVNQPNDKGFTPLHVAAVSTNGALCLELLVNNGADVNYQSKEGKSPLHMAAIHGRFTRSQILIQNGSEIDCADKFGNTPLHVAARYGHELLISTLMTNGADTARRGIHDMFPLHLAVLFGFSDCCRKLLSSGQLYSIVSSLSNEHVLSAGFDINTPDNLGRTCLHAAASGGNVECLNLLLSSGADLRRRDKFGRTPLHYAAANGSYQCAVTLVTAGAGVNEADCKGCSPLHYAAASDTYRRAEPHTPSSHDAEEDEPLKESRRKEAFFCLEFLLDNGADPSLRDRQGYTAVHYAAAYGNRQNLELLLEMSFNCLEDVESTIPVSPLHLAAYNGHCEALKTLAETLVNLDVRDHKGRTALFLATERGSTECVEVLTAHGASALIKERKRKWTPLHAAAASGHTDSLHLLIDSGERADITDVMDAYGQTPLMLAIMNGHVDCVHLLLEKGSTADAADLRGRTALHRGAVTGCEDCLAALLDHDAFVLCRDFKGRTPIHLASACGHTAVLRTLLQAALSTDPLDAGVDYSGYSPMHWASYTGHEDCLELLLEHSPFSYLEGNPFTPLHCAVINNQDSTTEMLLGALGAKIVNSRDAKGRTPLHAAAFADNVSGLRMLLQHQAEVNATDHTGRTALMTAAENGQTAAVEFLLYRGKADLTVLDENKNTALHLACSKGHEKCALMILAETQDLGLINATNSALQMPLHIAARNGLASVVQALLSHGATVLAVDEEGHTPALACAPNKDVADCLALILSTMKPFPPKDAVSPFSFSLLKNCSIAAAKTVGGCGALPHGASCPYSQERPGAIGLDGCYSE
UniProt P13798: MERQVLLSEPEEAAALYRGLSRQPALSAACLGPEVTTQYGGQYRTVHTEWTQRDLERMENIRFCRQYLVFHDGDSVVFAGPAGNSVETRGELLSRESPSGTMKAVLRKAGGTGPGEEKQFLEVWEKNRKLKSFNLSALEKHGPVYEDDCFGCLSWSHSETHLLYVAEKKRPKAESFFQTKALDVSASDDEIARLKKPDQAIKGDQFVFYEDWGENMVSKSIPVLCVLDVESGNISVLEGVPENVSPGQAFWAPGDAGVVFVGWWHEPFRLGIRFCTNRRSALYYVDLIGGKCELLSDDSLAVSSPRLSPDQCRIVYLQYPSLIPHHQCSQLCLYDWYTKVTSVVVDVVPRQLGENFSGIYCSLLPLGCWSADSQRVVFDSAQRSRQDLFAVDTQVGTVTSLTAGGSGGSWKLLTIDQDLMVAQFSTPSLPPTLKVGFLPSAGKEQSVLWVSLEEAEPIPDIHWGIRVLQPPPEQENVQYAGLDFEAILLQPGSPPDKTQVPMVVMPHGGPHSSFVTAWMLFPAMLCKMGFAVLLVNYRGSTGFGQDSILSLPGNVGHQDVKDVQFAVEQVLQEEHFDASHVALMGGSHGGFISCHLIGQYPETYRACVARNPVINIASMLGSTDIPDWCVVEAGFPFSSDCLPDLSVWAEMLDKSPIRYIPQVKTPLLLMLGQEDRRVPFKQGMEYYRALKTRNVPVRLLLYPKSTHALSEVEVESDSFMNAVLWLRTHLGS
UniProt O14727: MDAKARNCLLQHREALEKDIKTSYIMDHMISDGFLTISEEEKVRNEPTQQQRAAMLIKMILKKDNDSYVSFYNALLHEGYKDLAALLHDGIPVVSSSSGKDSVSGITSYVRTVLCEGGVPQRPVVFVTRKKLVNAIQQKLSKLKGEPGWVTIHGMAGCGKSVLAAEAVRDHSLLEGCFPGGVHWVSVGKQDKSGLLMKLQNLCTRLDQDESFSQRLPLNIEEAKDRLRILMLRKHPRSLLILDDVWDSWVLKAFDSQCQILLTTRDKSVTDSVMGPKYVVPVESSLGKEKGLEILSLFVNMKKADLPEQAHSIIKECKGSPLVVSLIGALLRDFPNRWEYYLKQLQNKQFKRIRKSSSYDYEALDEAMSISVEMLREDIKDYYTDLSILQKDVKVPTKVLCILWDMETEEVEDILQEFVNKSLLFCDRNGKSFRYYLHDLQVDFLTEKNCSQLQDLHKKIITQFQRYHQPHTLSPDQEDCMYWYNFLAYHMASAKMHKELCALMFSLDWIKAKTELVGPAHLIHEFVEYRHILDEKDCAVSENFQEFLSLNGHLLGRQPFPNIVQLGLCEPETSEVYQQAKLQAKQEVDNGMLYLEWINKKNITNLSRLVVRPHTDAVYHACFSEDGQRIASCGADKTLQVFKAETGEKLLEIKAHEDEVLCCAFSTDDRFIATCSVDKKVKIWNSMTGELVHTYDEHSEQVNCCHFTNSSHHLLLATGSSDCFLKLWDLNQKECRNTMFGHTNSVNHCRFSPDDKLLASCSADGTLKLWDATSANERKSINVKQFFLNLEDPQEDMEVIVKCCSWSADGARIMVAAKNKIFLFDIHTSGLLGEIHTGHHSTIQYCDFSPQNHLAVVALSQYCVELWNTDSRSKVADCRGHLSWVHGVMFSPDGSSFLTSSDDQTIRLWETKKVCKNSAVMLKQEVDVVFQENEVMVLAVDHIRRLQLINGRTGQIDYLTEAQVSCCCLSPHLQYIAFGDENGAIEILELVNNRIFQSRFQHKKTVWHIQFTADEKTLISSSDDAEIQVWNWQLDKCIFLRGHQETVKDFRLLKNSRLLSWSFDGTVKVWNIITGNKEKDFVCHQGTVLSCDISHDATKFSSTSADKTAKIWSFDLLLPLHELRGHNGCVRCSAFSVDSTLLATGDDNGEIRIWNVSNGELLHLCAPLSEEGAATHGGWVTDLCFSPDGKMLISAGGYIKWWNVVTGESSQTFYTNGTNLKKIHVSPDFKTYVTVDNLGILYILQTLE
UniProt Q8IUX4: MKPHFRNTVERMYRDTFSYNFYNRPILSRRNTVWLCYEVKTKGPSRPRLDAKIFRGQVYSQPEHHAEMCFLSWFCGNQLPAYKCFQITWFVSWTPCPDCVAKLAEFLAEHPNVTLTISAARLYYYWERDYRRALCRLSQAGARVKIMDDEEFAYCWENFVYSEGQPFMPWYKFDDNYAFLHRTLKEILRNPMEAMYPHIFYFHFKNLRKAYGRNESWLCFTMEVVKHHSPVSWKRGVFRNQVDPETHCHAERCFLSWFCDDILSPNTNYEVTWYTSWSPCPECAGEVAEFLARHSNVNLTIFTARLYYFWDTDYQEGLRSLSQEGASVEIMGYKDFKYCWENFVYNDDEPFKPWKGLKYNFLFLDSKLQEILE

These targets were tested with CC1Cc2ccccc2N1C(=O)C1CCCN(C1)C(=O)CCl (mixture of isomers) [TRIM25 ligand 11 (diastereomer mixture)] (assay: probe-labelled cysteine peptide fold change vs DMSO (competition) (log2 fold change); higher = less target engagement (more negative = stronger competition)). Conditions: 50 µM; THP-1; incubation time: 4 h.
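Also: competitive chemoproteomic profiling in live THP-1 cells with an iodoacetamide desthiobiotin (IA-DTB) probe, comparing probe-labelled peptide intensities in compound-treated cells against DMSO-treated controls.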

Target	probe-labelled cysteine peptide fold change
ANLN_Q9NQW6_469_QETHCQSTPLK (UniProt Q9NQW6)	-0.142
ANKRD17_O75179_210_LTSSVSCALDEAAAALTR (UniProt O75179)	0.105
APEX1_P27695_296_LDYFLLSHSLLPALCDSK (UniProt P27695)	0.115
AP5M1_Q9H0R1_444_ILDYTLTGCYADQHSVQVFASGKPK (UniProt Q9H0R1)	0.0182
APEX1_P27695_310_ALGSDHCPITLYLAL (UniProt P27695)	-0.0947
ANKFY1_Q9P2R3_724_HGCDATCWGPGPGGCLQTLLHR (UniProt Q9P2R3)	0.0578
AP2A1_O95782_397_AADLLYAMCDR (UniProt O95782)	-0.0127
AP2A1_O95782_213_VVHLLNDQHMGVVTAAVSLITCLCK (UniProt O95782)	0.0848
ANO6_Q4KMQ2_426_CTHVVINEITQEEERIPFTAWGK (UniProt Q4KMQ2)	-0.0867
ANKRD28_O15084_387_GIHGMFPLHLAALSGFSDCCR (UniProt O15084)	0.103
AP3D1_O14617_1103_VDSCASMYSR (UniProt O14617)	0.258
APBB1IP_Q7Z5R6_381_YKAPTDYCFVLK (UniProt Q7Z5R6)	-0.0553
AP3M2_P53677_236_LLDDVSFHPCVR (UniProt P53677)	-0.162
ANKRD28_O15084_598_GHVECVDVLINQGASILVK (UniProt O15084)	-0.0665
ANKRD52_Q8NB46_733_GAVTGCEDCLAALLDHDAFVLCR (UniProt Q8NB46)	0.0111
API5_Q9BZZ5_345_LQFSYVECLLYSFHQLGR (UniProt Q9BZZ5)	0.0127
AP3M1_Q9Y2T2_288_ENSSCGR (UniProt Q9Y2T2)	0.494
APBB1IP_Q7Z5R6_220_THCDCNVDWCLYEIYPELQIER (UniProt Q7Z5R6)	0.00553
ANKRD44_Q8N8A2_834_FIGNPFTPLHCAIINDHGNCASLLLGAIDSSIVSCRDDK (UniProt Q8N8A2)	-0.105
AP2A1_O95782_941_ALQVGCLLR (UniProt O95782)	0.29

A run of entries taken from the entries so far, as a working copy:
Target	probe-labelled cysteine peptide fold change
APBB1IP_Q7Z5R6_220_THCDCNVDWCLYEIYPELQIER (UniProt Q7Z5R6)	0.00553
ANKRD44_Q8N8A2_834_FIGNPFTPLHCAIINDHGNCASLLLGAIDSSIVSCRDDK (UniProt Q8N8A2)	-0.105

Remaining list, next part.

Target	probe-labelled cysteine peptide fold change
APEH_P13798_152_HGPVYEDDCFGCLSWSHSETHLLYVAEK (UniProt P13798)	-0.0644
ANKLE2_Q86XL3_844_RLFLFGEEPSKLDQDVLAALECADVDPHQFPAVHR (UniProt Q86XL3)	-0.047
ANKS1A_Q92625_211_MLLNAHPNLLSCNTK (UniProt Q92625)	0.0941
AP2B1_P63010_123_ITEYLCEPLRK (UniProt P63010)	-0.0367
APAF1_O14727_662_AHEDEVLCCAFSTDDR (UniProt O14727)	0.215
ANKFY1_Q9P2R3_995_VLLTECTVDAEAFNLR (UniProt Q9P2R3)	0.189
ANKRD44_Q8N8A2_854_TPLHAAAFADHVECLQLLLR (UniProt Q8N8A2)	0.148
APEH_P13798_368_QLGENFSGIYCSLLPLGCWSADSQR (UniProt P13798)	-0.216
ANKRD10_Q9NXR5_140_SGSLECISALVANGAHVDLR (UniProt Q9NXR5)	-0.119
AP1G1_O43747_353_STIVDCLK (UniProt O43747)	0.0363
APAF1_O14727_749_NTMFGHTNSVNHCR (UniProt O14727)	-0.185
ANKHD1_Q8IWZ3_1965_QLFACVPK (UniProt Q8IWZ3)	-0.109
ANKRD28_O15084_838_TPLHAAAFTDHVECLQLLLSHNAQVNSVDSTGK (UniProt O15084)	-0.0313
APOBEC3F_Q8IUX4_36_RNTVWLCYEVK (UniProt Q8IUX4)	0.162
ANKMY2_Q8IV38_390_LDVNSNCVNEEQPEAEVGISQK (UniProt Q8IV38)	-0.183
ANKRD44_Q8N8A2_704_EANVDTVDILGCTALHR (UniProt Q8N8A2)	-0.0747
ANKRD52_Q8NB46_733+749_GAVTGCEDCLAALLDHDAFVLCR (UniProt Q8NB46)	-0.356
AP2A1_O95782_970_HLCELLAQQF (UniProt O95782)	0.0112
ANKRD27_Q96NW4_39_VAQIHGIVLVPCK (UniProt Q96NW4)	0.0718
